Results deposited as PubChem BioAssay AID720505 (Drosophila RNAi Screening Center, 2013)
Assay: 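Knock-downs that reduce calcium influx once internal stores are emptied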 (primary screen). Cell system: Drosophila S2R+ cells. Reagents: long dsRNA against Drosophila genes. Treatment: thapsigargin (2 µM) in calcium-free buffer to empty internal stores, then 2 mM calcium added back. Measurement: 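Fluo-4 signal in 384-well plates read on a FLIPR after thapsigargin (2 µM, calcium-free) store depletion and 2 mM calcium add-back; unnormalised mean endpoint per well; screen run twice, selected wells retested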. Direction: calcium signal and retest calcium signal: higher = more calcium entry after store depletion. Rule for the call: 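Knock-downs counted as hits when calcium entry dropped relative to STIM1 positive and Rho1 negative controls present on each plate; roughly 1500 genes called, with reductions of differing size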. Meaning of the calls: active = called as lowering calcium entry; inactive = not called.
In all, the deposit lists about 20,000 reagents; below is a random part of those with a known target gene and a result. Of all reagents, about 2,100 (10%) are marked active. 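Raw plate signals without normalisation; calls rest on control-based scores that were not deposited; replicate 2 separates called from uncalled poorly.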 The numbers tell different reagents against one gene apart. A plus sign joins genes that one reagent is predicted to hit. The record does not give: the amount of reagent, the time to read-out.

Against CG31832 the deposit lists calcium signal, replicate 1 = 100; calcium signal, replicate 2 = 247; inactive.
After knock-down of GABA-B-R2, the record shows calcium signal, replicate 1 = 132; calcium signal, replicate 2 = 150; retest calcium signal, replicate 1 = 91.8; retest calcium signal, replicate 2 = 105; inactive.
Knock-down of Prx6c gave: calcium signal, replicate 1 = 118; calcium signal, replicate 2 = 126; inactive.
After knock-down of CG31663 #1, the record shows calcium signal, replicate 1 = 68.4; calcium signal, replicate 2 = 132; inactive.
For CG31663 #2, the entry reads calcium signal, replicate 1 = 144; calcium signal, replicate 2 = 272; inactive.
With knock-down of CG31663 #3 the results were calcium signal, replicate 1 = 178; calcium signal, replicate 2 = 185; inactive.
With knock-down of CG31663 #4 the results were calcium signal, replicate 1 = 129; calcium signal, replicate 2 = 105; inactive.
Against Dnali1 the deposit lists calcium signal, replicate 1 = 113; calcium signal, replicate 2 = 135; inactive.
For CG10581 the deposit lists calcium signal, replicate 1 = 109; calcium signal, replicate 2 = 106; inactive.
After knock-down of Fit2 the results were calcium signal, replicate 1 = 124; calcium signal, replicate 2 = 134; inactive.
After knock-down of CG13010, the screen gave calcium signal, replicate 1 = 72.4; calcium signal, replicate 2 = 99.4; active.
CG13998 gave calcium signal, replicate 1 = 217; calcium signal, replicate 2 = 112; inactive.
Silencing of mRRF2 resulted in: calcium signal, replicate 1 = 77.4; calcium signal, replicate 2 = 90.1; inactive.
Against side-IV + asRNA:CR17025 #1 the deposit lists calcium signal, replicate 1 = 161; calcium signal, replicate 2 = 184; inactive.
With knock-down of side-IV + asRNA:CR17025 #2, the screen gave calcium signal, replicate 1 = 122; calcium signal, replicate 2 = 147; inactive.
nac showed calcium signal, replicate 1 = 69.4; calcium signal, replicate 2 = 191; active.
For fog, the values are calcium signal, replicate 1 = 187; calcium signal, replicate 2 = 150; inactive.
After knock-down of CG12661 the results were calcium signal, replicate 1 = 55.8; calcium signal, replicate 2 = 262; active.
Against LSm1, the entry reads calcium signal, replicate 1 = 86; calcium signal, replicate 2 = 93.9; inactive.
After knock-down of obst-A the results were calcium signal, replicate 1 = 103; calcium signal, replicate 2 = 146; inactive.
CG2681 showed calcium signal, replicate 1 = 131; calcium signal, replicate 2 = 161; inactive.
With knock-down of Vha13, the record shows calcium signal, replicate 1 = 156; calcium signal, replicate 2 = 133; inactive.

Only “calcium signal, replicate 2” (4 entries from above):
CG13010 = 99.4
CG13998 = 112
mRRF2 = 90.1
side-IV + asRNA:CR17025 #1 = 184

The listing continues:
With knock-down of CG34228, the record shows calcium signal, replicate 1 = 100; calcium signal, replicate 2 = 80.8; inactive.
AP-2alpha showed calcium signal, replicate 1 = 164; calcium signal, replicate 2 = 129; inactive.
Knock-down of CG13114 came out at: calcium signal, replicate 1 = 245; calcium signal, replicate 2 = 199; inactive.
CG2975 scored calcium signal, replicate 1 = 191; calcium signal, replicate 2 = 159; inactive.
Against Naa15-16 #1, the entry reads calcium signal, replicate 1 = 137; calcium signal, replicate 2 = 163; retest calcium signal, replicate 1 = 162; retest calcium signal, replicate 2 = 180; inactive.
Against Naa15-16 #2, the entry reads calcium signal, replicate 1 = 87.8; calcium signal, replicate 2 = 120; inactive.
Knock-down of CG12375 came out at: calcium signal, replicate 1 = 163; calcium signal, replicate 2 = 204; inactive.
For CG14088 the deposit lists calcium signal, replicate 1 = 113; calcium signal, replicate 2 = 119; inactive.
After knock-down of CDK2AP1 the results were calcium signal, replicate 1 = 109; calcium signal, replicate 2 = 76.9; inactive.
Osi16 #1 gave calcium signal, replicate 1 = 103; calcium signal, replicate 2 = 85.9; inactive.
For Osi16 #2 the deposit lists calcium signal, replicate 1 = 107; calcium signal, replicate 2 = 101; inactive.
Depletion of CG6005 resulted in: calcium signal, replicate 1 = 159; calcium signal, replicate 2 = 188; inactive.
Or88a scored calcium signal, replicate 1 = 113; calcium signal, replicate 2 = 169; inactive.
